Some results were stated once for a whole list of compounds, not compound by compound.
What was measured:
[1] = tested on: CEM_V1_3.1_2 cells; test: Cytotoxicity test (1) of antibody-drug conjugate, B7-H3-expressing cells; format: cell-based; settings: CCRF-CEM cells stably expressing B7-H3 variant 1; cultured 3 days; CellTiter-Glo; read-out: IC50, cytotoxic activity against the CEM_V1_3.1_2 cells
[2] = tested on: CCRF-CEM cells; test: Cytotoxicity test (1) of antibody-drug conjugate, cell line lacking B7-H3 expression; format: cell-based; settings: parent line lacking B7-H3 expression; cultured 3 days; CellTiter-Glo; read-out: IC50, cytotoxic activity against the CCRF-CEM cells

M30-H1-L4 antibody: humanized anti-B7-H3 antibody; heavy chain positions 20 to 471 of SEQ ID NO: 9, light chain positions 21 to 233 of SEQ ID NO: 16
IC50 [1]: > 0.1 µM
IC50 [2]: > 0.1 µM
